Reference: patent US6781000B1, “Alpha-ketoamide inhibitors of 20S proteasome” (CV Theurapeutics, Inc., priority 1998, dated 2004)
pIC50: −log10 of the molar value. Like-named read-outs stand apart in the source and are kept apart here. Some entries share one result that the patent states for a list of compounds.

Amino acid sequences for entries named in this document (tags omitted). A change or cut given only in a name is not applied to a line headed by its entry.
UniProt P33672: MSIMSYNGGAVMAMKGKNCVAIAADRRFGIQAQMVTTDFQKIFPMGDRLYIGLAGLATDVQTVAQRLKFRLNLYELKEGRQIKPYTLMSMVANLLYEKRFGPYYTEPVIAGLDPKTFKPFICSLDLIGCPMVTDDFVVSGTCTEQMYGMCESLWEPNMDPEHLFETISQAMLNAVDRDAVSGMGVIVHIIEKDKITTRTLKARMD
UniProt Q2TBP0: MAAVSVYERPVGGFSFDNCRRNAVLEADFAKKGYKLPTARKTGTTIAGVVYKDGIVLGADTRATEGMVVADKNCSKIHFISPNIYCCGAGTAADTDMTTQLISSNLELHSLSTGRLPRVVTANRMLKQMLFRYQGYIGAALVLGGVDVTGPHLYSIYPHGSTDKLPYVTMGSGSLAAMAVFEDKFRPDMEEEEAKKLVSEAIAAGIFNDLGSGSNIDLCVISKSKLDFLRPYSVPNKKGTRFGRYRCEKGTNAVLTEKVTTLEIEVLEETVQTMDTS
UniProt Q3MHN0: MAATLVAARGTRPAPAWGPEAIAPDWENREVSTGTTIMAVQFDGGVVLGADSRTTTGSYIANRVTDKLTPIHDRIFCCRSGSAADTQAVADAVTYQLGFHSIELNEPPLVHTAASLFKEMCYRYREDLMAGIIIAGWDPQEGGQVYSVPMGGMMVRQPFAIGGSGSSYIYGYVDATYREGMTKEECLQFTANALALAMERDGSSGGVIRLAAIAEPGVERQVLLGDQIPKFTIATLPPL

What was measured:
[1] = target: T1, tryptic activity of 20S proteasome (Bos taurus, UniProt P33672+Q2TBP0); test: 20S proteasome tryptic activity inhibition assay (CBZ-D-Ala-Leu-Arg-AMC cleavage); assay type: biochemical, bovine; details: 15 minutes at 37° C.; for pIC50: read-out: tryptic activity inhibition, active as inhibitors at
T1 construct: was purified to homogeneity from bovine brain according to published methods; from tissue; host or cells: bovine brain

[2] = target: T2, peptidylglutamyl activity of 20S proteasome (Bos taurus, UniProt Q2TBP0+Q3MHN0); test: 20S proteasome peptidylglutamyl activity inhibition assay (CBZ-D-Ala-Leu-Glu-AMC cleavage); assay type: biochemical; details: Example 6: 2 μg 20S proteasome from bovine brain, substrate CBZ D-Ala-Leu-Glu-AMC, 15 minutes at 37° C.; for pIC50: read-out: peptidylglutamyl activity inhibition, active at
T2 construct: was purified to homogeneity from bovine brain according to published methods; from tissue; host or cells: bovine brain
Procedure: Compounds of this invention prepared according to the method of Example 1 were also tested as follows. The 20S catalytic subunit of the proteasome (also known as the multicatalytic proteinase complex) was purified to homogeneity from bovine brain according to published methods (Wilk S. and Orlowski, M. 1983, 40 842 J. Neurochem). […] of the complex is measured by the increase in fluorescence following cleavage of the substrate peptide CBZ D-Ala-Leu-Glu-(7-amino-4-methyl coumarin). The standard in vitro assay consists of 2 μg 20S proteasome, 0.1-100 μg/ml proteasome inhibitor in […] 50 mM HEPES, containing 0.1% sodium dodecyl sulphate, pH 7.5. The proteolytic reaction is initiated by the addition of […] fluorogenic peptide substrate and allowed to progress for 15 minutes at 37° C. The reaction is terminated by the addition of […] 100 mM acetate buffer, pH 4.0. The rate of proteolysis is directly proportional to the amount of liberated aminomethylcoumarin which is measured by fluorescent spectroscopy (EX 370 nm, EM 430 nm). Compounds 1-207 were tested for peptidylglutamyl activity inhibition at >10 μg/mL. Compound 190 was active at 5 μg/mL.

[3] = Example 4: 2 μg 20S proteasome from bovine brain, substrate CBZ-D-Ala-Leu-Arg-AMC
[4] = Example 5: 20 μg 20S proteasome from bovine brain, substrate CBZ D-Ala-Leu-Arg-AMC

## CC(C)C[C@@H](NC(=O)[C@H](Cc1ccc(-c2ccccc2)cc1)NC(=O)C(=O)Cc1c[nH]c2ccccc12)C(=O)N[C@H](C(=O)O)C(C)C [Compound 51]
[1]; [3]
  pIC50: < 4.81
[1]; [4]
  pIC50: < 4.81
[2]
  pIC50: < 4.81

## CC(C)CC(NC(=O)CCNC(=O)C(=O)Cc1c[nH]c2ccccc12)C(=O)NCC(=O)O (stereo not drawn) [Compound 53]
[1]; [3]
  pIC50: < 4.65
[1]; [4]
  pIC50: < 4.65
[2]
  pIC50: < 4.65

## CCCCC(NC(=O)C(=O)Cc1c[nH]c2ccccc12)C(=O)NC(CC(C)C)C(=O)NCC(=O)O (stereo not drawn) [Compound 54]
[1]; [3]
  tryptic activity inhibition, active as inhibitors at: > 10 µg/mL
[1]; [4]
  tryptic activity inhibition, active as inhibitors at: > 10 µg·mL
[2]
  peptidylglutamyl activity inhibition, active at: > 10 µg/mL

## CC(C)CC(NC(=O)C(Cc1ccccc1)NC(=O)C(=O)Cc1c[nH]c2ccccc12)C(=O)NCC(=O)O (stereo not drawn) [Compound 55]
[1]; [3]
  tryptic activity inhibition, active as inhibitors at: > 10 µg/mL
[1]; [4]
  tryptic activity inhibition, active as inhibitors at: > 10 µg·mL
[2]
  peptidylglutamyl activity inhibition, active at: > 10 µg/mL

## CC(C)CC(NC(=O)C(NC(=O)C(=O)Cc1c[nH]c2ccccc12)C(C)O)C(=O)NCC(=O)O (stereo not drawn) [Compound 56]
[1]; [3]
  tryptic activity inhibition, active as inhibitors at: > 10 µg/mL
[1]; [4]
  tryptic activity inhibition, active as inhibitors at: > 10 µg·mL
[2]
  peptidylglutamyl activity inhibition, active at: > 10 µg/mL

## CC(C)CC(NC(=O)C(C)NC(=O)C(=O)Cc1c[nH]c2ccccc12)C(=O)NCC(=O)O (stereo not drawn) [Compound 57]
[1]; [3]
  tryptic activity inhibition, active as inhibitors at: > 10 µg/mL
[1]; [4]
  tryptic activity inhibition, active as inhibitors at: > 10 µg·mL
[2]
  peptidylglutamyl activity inhibition, active at: > 10 µg/mL

## CC(C)C[C@@H](NC(=O)[C@H](CC(=O)O)NC(=O)C(=O)Cc1c[nH]c2ccccc12)C(=O)NCC(=O)O [Compound 58]
[1]; [3]
  pIC50: < 4.69
[1]; [4]
  pIC50: < 4.69
[2]
  pIC50: < 4.69

## CC(C)C[C@@H](NC(=O)[C@@H](NC(=O)C(=O)Cc1c[nH]c2ccccc12)C(C)C)C(=O)NCC(=O)O [Compound 59]
[1]; [3]
  pIC50: < 4.67
[1]; [4]
  pIC50: < 4.67
[2]
  pIC50: < 4.67

## CCCC(NC(=O)C(=O)Cc1c[nH]c2ccccc12)C(=O)NC(CC(C)C)C(=O)NCC(=O)O (stereo not drawn) [Compound 60]
[1]; [3]
  tryptic activity inhibition, active as inhibitors at: > 10 µg/mL
[1]; [4]
  tryptic activity inhibition, active as inhibitors at: > 10 µg·mL
[2]
  peptidylglutamyl activity inhibition, active at: > 10 µg/mL

## CC(C)CC(NC(=O)C(Cc1ccc(O)cc1)NC(=O)C(=O)Cc1c[nH]c2ccccc12)C(=O)NCC(=O)O (stereo not drawn) [Compound 61]
[1]; [3]
  tryptic activity inhibition, active as inhibitors at: > 10 µg/mL
[1]; [4]
  tryptic activity inhibition, active as inhibitors at: > 10 µg·mL
[2]
  peptidylglutamyl activity inhibition, active at: > 10 µg/mL

## CCC(C)C(NC(=O)C(=O)Cc1c[nH]c2ccccc12)C(=O)NC(CC(C)C)C(=O)NCC(=O)O (stereo not drawn) [Compound 62]
[1]; [3]
  tryptic activity inhibition, active as inhibitors at: > 10 µg/mL
[1]; [4]
  tryptic activity inhibition, active as inhibitors at: > 10 µg·mL
[2]
  peptidylglutamyl activity inhibition, active at: > 10 µg/mL

## CC(C)CC(NC(=O)C(CC1CCCCC1)NC(=O)C(=O)Cc1c[nH]c2ccccc12)C(=O)NCC(=O)O (stereo not drawn) [Compound 63]
[1]; [3]
  tryptic activity inhibition, active as inhibitors at: > 10 µg/mL
[1]; [4]
  tryptic activity inhibition, active as inhibitors at: > 10 µg·mL
[2]
  peptidylglutamyl activity inhibition, active at: > 10 µg/mL

## CC(C)CC(NC(=O)CNC(=O)C(=O)Cc1c[nH]c2ccccc12)C(=O)NC(C)C(=O)O (stereo not drawn) [Compound 67]
[1]; [3]
  tryptic activity inhibition, active as inhibitors at: > 10 µg/mL
[1]; [4]
  tryptic activity inhibition, active as inhibitors at: > 10 µg·mL
[2]
  peptidylglutamyl activity inhibition, active at: > 10 µg/mL

## CC(C)CC(NC(=O)CCNC(=O)C(=O)Cc1c[nH]c2ccccc12)C(=O)NC(C)C(=O)O (stereo not drawn) [Compound 68]
[1]; [3]
  tryptic activity inhibition, active as inhibitors at: > 10 µg/mL
[1]; [4]
  tryptic activity inhibition, active as inhibitors at: > 10 µg·mL
[2]
  peptidylglutamyl activity inhibition, active at: > 10 µg/mL

## CCCCC(NC(=O)C(=O)Cc1c[nH]c2ccccc12)C(=O)NC(CC(C)C)C(=O)NC(C)C(=O)O (stereo not drawn) [Compound 69]
[1]; [3]
  tryptic activity inhibition, active as inhibitors at: > 10 µg/mL
[1]; [4]
  tryptic activity inhibition, active as inhibitors at: > 10 µg·mL
[2]
  peptidylglutamyl activity inhibition, active at: > 10 µg/mL

## CC(C)CC(NC(=O)C(Cc1ccccc1)NC(=O)C(=O)Cc1c[nH]c2ccccc12)C(=O)NC(C)C(=O)O (stereo not drawn) [Compound 70]
[1]; [3]
  tryptic activity inhibition, active as inhibitors at: > 10 µg/mL
[1]; [4]
  tryptic activity inhibition, active as inhibitors at: > 10 µg·mL
[2]
  peptidylglutamyl activity inhibition, active at: > 10 µg/mL

## CC(C)CC(NC(=O)C(NC(=O)C(=O)Cc1c[nH]c2ccccc12)C(C)O)C(=O)NC(C)C(=O)O (stereo not drawn) [Compound 71]
[1]; [3]
  tryptic activity inhibition, active as inhibitors at: > 10 µg/mL
[1]; [4]
  tryptic activity inhibition, active as inhibitors at: > 10 µg·mL
[2]
  peptidylglutamyl activity inhibition, active at: > 10 µg/mL

## CC(C)CC(NC(=O)C(C)NC(=O)OCc1c[nH]c2ccccc12)C(=O)NC(C)C(=O)O (stereo not drawn) [Compound 72]
[1]; [3]
  tryptic activity inhibition, active as inhibitors at: > 10 µg/mL
[1]; [4]
  tryptic activity inhibition, active as inhibitors at: > 10 µg·mL
[2]
  peptidylglutamyl activity inhibition, active at: > 10 µg/mL

## CC(C)CC(NC(=O)C(CC(=O)O)NC(=O)OCc1c[nH]c2ccccc12)C(=O)NC(C)C(=O)O (stereo not drawn) [Compound 73]
[1]; [3]
  tryptic activity inhibition, active as inhibitors at: > 10 µg/mL
[1]; [4]
  tryptic activity inhibition, active as inhibitors at: > 10 µg·mL
[2]
  peptidylglutamyl activity inhibition, active at: > 10 µg/mL

## CC(C)CC(NC(=O)C(NC(=O)C(=O)Cc1c[nH]c2ccccc12)C(C)C)C(=O)NC(C)C(=O)O (stereo not drawn) [Compound 74]
[1]; [3]
  tryptic activity inhibition, active as inhibitors at: > 10 µg/mL
[1]; [4]
  tryptic activity inhibition, active as inhibitors at: > 10 µg·mL
[2]
  peptidylglutamyl activity inhibition, active at: > 10 µg/mL

## CCCC(NC(=O)C(=O)Cc1c[nH]c2ccccc12)C(=O)NC(CC(C)C)C(=O)NC(C)C(=O)O (stereo not drawn) [Compound 75]
[1]; [3]
  pIC50: < 4.69
[1]; [4]
  pIC50: < 4.69
[2]
  pIC50: < 4.69

## CC(C)CC(NC(=O)C(Cc1ccc(O)cc1)NC(=O)C(=O)Cc1c[nH]c2ccccc12)C(=O)NC(C)C(=O)O (stereo not drawn) [Compound 76]
[1]; [3]
  tryptic activity inhibition, active as inhibitors at: > 10 µg/mL
[1]; [4]
  tryptic activity inhibition, active as inhibitors at: > 10 µg·mL
[2]
  peptidylglutamyl activity inhibition, active at: > 10 µg/mL

## CCC(C)C(NC(=O)C(=O)Cc1c[nH]c2ccccc12)C(=O)NC(CC(C)C)C(=O)NC(C)C(=O)O (stereo not drawn) [Compound 77]
[1]; [3]
  pIC50: < 4.70
[1]; [4]
  pIC50: < 4.70
[2]
  pIC50: < 4.70

## CC(C)CC(NC(=O)C(CC1CCCCC1)NC(=O)C(=O)Cc1c[nH]c2ccccc12)C(=O)NC(C)C(=O)O (stereo not drawn) [Compound 78]
[1]; [3]
  tryptic activity inhibition, active as inhibitors at: > 10 µg/mL
[1]; [4]
  tryptic activity inhibition, active as inhibitors at: > 10 µg·mL
[2]
  peptidylglutamyl activity inhibition, active at: > 10 µg/mL

## CC(C)CC(NC(=O)C(Cc1cccnc1)NC(=O)C(=O)Cc1c[nH]c2ccccc12)C(=O)NC(C)C(=O)O (stereo not drawn) [Compound 79]
[1]; [3]
  tryptic activity inhibition, active as inhibitors at: > 10 µg/mL
[1]; [4]
  tryptic activity inhibition, active as inhibitors at: > 10 µg·mL
[2]
  peptidylglutamyl activity inhibition, active at: > 10 µg/mL

## CC(C)CC(NC(=O)C(Cc1ccc2ccccc2c1)NC(=O)C(=O)Cc1c[nH]c2ccccc12)C(=O)NC(C)C(=O)O (stereo not drawn) [Compound 80]
[1]; [3]
  tryptic activity inhibition, active as inhibitors at: > 10 µg/mL
[1]; [4]
  tryptic activity inhibition, active as inhibitors at: > 10 µg·mL
[2]
  peptidylglutamyl activity inhibition, active at: > 10 µg/mL

## CC(C)CC(NC(=O)C(Cc1ccc(-c2ccccc2)cc1)NC(=O)C(=O)Cc1c[nH]c2ccccc12)C(=O)NC(C)C(=O)O (stereo not drawn) [Compound 81]
[1]; [3]
  pIC50: < 4.79
[1]; [4]
  pIC50: < 4.79
[2]
  pIC50: < 4.79

## CC(C)CC(NC(=O)CNC(=O)C(=O)Cc1c[nH]c2ccccc12)C(=O)NC(Cc1ccc(O)cc1)C(=O)O (stereo not drawn) [Compound 82]
[1]; [3]
  pIC50: < 4.73
[1]; [4]
  pIC50: < 4.73
[2]
  pIC50: < 4.73

## CC(C)CC(NC(=O)C(NC(=O)C(=O)Cc1c[nH]c2ccccc12)C(C)O)C(=O)NC(Cc1ccc(O)cc1)C(=O)O (stereo not drawn) [Compound 83]
[1]; [3]
  tryptic activity inhibition, active as inhibitors at: > 10 µg/mL
[1]; [4]
  tryptic activity inhibition, active as inhibitors at: > 10 µg·mL
[2]
  peptidylglutamyl activity inhibition, active at: > 10 µg/mL

## CC(C)CC(NC(=O)CCNC(=O)C(=O)Cc1c[nH]c2ccccc12)C(=O)NC(Cc1ccc(O)cc1)C(=O)O (stereo not drawn) [Compound 84]
[1]; [3]
  tryptic activity inhibition, active as inhibitors at: > 10 µg/mL
[1]; [4]
  tryptic activity inhibition, active as inhibitors at: > 10 µg·mL
[2]
  peptidylglutamyl activity inhibition, active at: > 10 µg/mL

## CC(C)CC(NC(=O)C(=O)Cc1c[nH]c2ccccc12)C(=O)NC(CC(C)C)C(=O)NCC(=O)O (stereo not drawn) [Compound 85]
[1]; [3]
  tryptic activity inhibition, active as inhibitors at: > 10 µg/mL
[1]; [4]
  tryptic activity inhibition, active as inhibitors at: > 10 µg·mL
[2]
  peptidylglutamyl activity inhibition, active at: > 10 µg/mL

## CC(C)CC(NC(=O)C(=O)Cc1c[nH]c2ccccc12)C(=O)NC(CC(C)C)C(=O)NC(Cc1ccc(O)cc1)C(=O)O (stereo not drawn) [Compound 88]
[1]; [3]
  pIC50: < 4.77
[1]; [4]
  pIC50: < 4.77
[2]
  pIC50: < 4.77

## CC(C)CC(NC(=O)CNC(=O)C(=O)Cc1c[nH]c2ccccc12)C(=O)NC(CO)C(=O)O (stereo not drawn) [Compound 89]
[1]; [3]
  tryptic activity inhibition, active as inhibitors at: > 10 µg/mL
[1]; [4]
  tryptic activity inhibition, active as inhibitors at: > 10 µg·mL
[2]
  peptidylglutamyl activity inhibition, active at: > 10 µg/mL
